PubChem BioAssay AID504744, Drosophila RNAi Screening Center | 2011
Assay: 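Uncover factors, including feedback loops, that control dAkt activation in fly cells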 (primary screen). Cell system: Drosophila Kc167 cells. Reagents: long dsRNA against Drosophila genes, 250 ng dsRNA per well of a 384-well plate. Time to read-out: 3 days of knock-down, then overnight serum-free starvation before stimulation. Treatment: bovine insulin at 387 nM for 10 minutes after 12 h without serum. Read-out: 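Per-well phospho-dAkt level from an in-cell fluorescent antibody stain, divided by a DNA-dye signal; log2 residuals turned into z-scores that take cell number into account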. Rule for the call: 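Hit in the insulin screen when the two-replicate mean z-score is more extreme than plus or minus 2.5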.
The deposit covers about 23,000 reagents; below is a random part of those with a known target gene and a result. Over the whole deposit, 98 (0.43%) were called active. 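Only hit calls are given; the phospho-dAkt signals, z-scores and hit direction were not deposited.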 A plus sign joins genes that one reagent is predicted to hit. No sequences are given here.

| predicted target | dsRNA | call |
| --- | --- | --- |
| CG10514 | DRSC14249 | inactive |
| Gapdh2 (Glyceraldehyde 3 phosphate dehydrogenase 2) | DRSC20246 | inactive |
| CG12783 | DRSC14538 | inactive |
| CG34426 | DRSC09977 | inactive |
| CG11883 | DRSC06094 | inactive |
| betaNACtes2 (Nascent-associated complex beta-subunit-like, testis 2) | DRSC19792 | inactive |
| CG31270 (retired record) | DRSC22252 | inactive |
| rst (roughest) | DRSC17243 | inactive |
| rst (roughest) | DRSC18828 | inactive |
| Fum2 (Fumarase 2) | DRSC18345 | inactive |
| CG1075 (retired record) | DRSC12144 | inactive |
| CG14566 | DRSC11727 | inactive |
| CG17648 | DRSC00508 | inactive |
| CG4891 | DRSC01936 | inactive |
| CG32694 | DRSC17844 | inactive |
| CG32694 | DRSC17855 | inactive |
| CG32694 | DRSC22670 | inactive |
| IM33 (Immune induced molecule 33) | DRSC00476 | inactive |
| CG3091 | DRSC18274 | inactive |
| CG12398 | DRSC19454 | inactive |
| CG11635 + spaw | DRSC06075 | inactive |
| CG32061 | DRSC22605 | inactive |
| Wnt5 (Wnt oncogene analog 5) | DRSC20300 | inactive |
| CG8478 | DRSC16427 | inactive |
| DnaJ-H (DnaJ homolog) | DRSC03273 | inactive |
| P58IPK | DRSC16404 | inactive |
| PheRS-m (Phenylalanyl-tRNA synthetase, mitochondrial) | DRSC05915 | inactive |
| Rpn12R (Regulatory particle non-ATPase 12-related) | DRSC09842 | inactive |
| GXIVsPLA2 | DRSC10243 | inactive |
| GluRIIB (Glutamate receptor IIB) | DRSC03335 | inactive |
| CG17270 | DRSC15209 | inactive |
| Nipped-A | DRSC04882 | inactive |
| Nipped-A | DRSC04883 | inactive |
| Nipped-A | DRSC04884 | inactive |
| Nipped-A | DRSC07738 | inactive |
| Nipped-A | DRSC22386 | inactive |
| Hrd3 (HMG-coA reductase degradation 3) | DRSC14156 | inactive |
| Cyp317a1 (Cytochrome P450 317a1) | DRSC07366 | inactive |
| Gbp2 (Growth-blocking peptide 2) | DRSC06069 | inactive |
| Grd (Glycine receptor) | DRSC11178 | inactive |
| CG3356 | DRSC04358 | inactive |
| Mms19 | DRSC12188 | inactive |
| CG42449 | DRSC18084 | inactive |
| IntS9 (Integrator 9) | DRSC10493 | inactive |
| Adgf-C (Adenosine deaminase-related growth factor C) | DRSC16473 | inactive |
| CG34125 | DRSC00850 | inactive |
| CG32037 | DRSC10363 | inactive |
| CAHbeta (Carbonic anhydrase beta) | DRSC14449 | inactive |
| wcd (wicked) | DRSC07051 | inactive |
| CG5888 | DRSC01929 | inactive |
| side-VI (sidestep VI) | DRSC12828 | inactive |
| side-VI (sidestep VI) | DRSC12830 | inactive |
| side-VI (sidestep VI) | DRSC14920 | inactive |
| side-VI (sidestep VI) | DRSC15624 | inactive |
| zyd (zydeco) | DRSC20716 | inactive |
| Jhbp3 (Juvenile hormone binding protein 3) | DRSC12247 | inactive |
| ppk28 (pickpocket 28) | DRSC19919 | inactive |
| CG34330 | DRSC20043 | inactive |
| holn1 (hole-in-one) | DRSC02827 | inactive |
| holn1 (hole-in-one) | DRSC22822 | inactive |
| Traf6 (TNF-receptor-associated factor 6) | DRSC18725 | inactive |
| RpLP0-like (Ribosomal protein LP0-like) | DRSC06424 | inactive |
| ND4 (retired record) | DRSC21269 | inactive |
| CG5973 | DRSC02918 | inactive |
| CG3698 | DRSC11749 | inactive |
| CG31145 | DRSC13634 | inactive |
| CG31145 | DRSC14206 | inactive |
| CG31145 | DRSC14670 | inactive |
| CG31145 | DRSC14671 | inactive |
| Wnt10 (Wnt oncogene analog 10) | DRSC00990 | inactive |
| Wnt10 (Wnt oncogene analog 10) | DRSC02797 | inactive |
| RYa-R (RYamide receptor) | DRSC16757 | inactive |
| Nepl17 (Neprilysin-like 17) | DRSC14880 | inactive |
| Peritrophin-15a | DRSC02636 | inactive |
| CG14515 | DRSC14867 | inactive |
| CG12589 | DRSC12215 | inactive |
| Grip91 (Gamma-tubulin ring protein 91) | DRSC20249 | inactive |
| sei (seizure) | DRSC04713 | inactive |
| Cyp6t3 (Cytochrome P450 6t3) | DRSC07388 | inactive |
| Gr63a (Gustatory receptor 63a) | DRSC08438 | inactive |
| mip120 (Myb-interacting protein 120) | DRSC06960 | inactive |
| betaNACtes1 (Nascent-associated complex beta-subunit-like, testis 1) | DRSC19534 | inactive |
| CG31278 | DRSC16051 | inactive |
| boss (bride of sevenless) | DRSC16916 | inactive |
| CG11882 | DRSC14425 | inactive |
| Sec61beta (Sec61 beta subunit) | DRSC07548 | inactive |
| Sec61beta (Sec61 beta subunit) | DRSC21512 | inactive |
| CG8839 | DRSC07285 | inactive |
| eIF3b (eukaryotic translation initiation factor 3 subunit b) | DRSC06900 | inactive |
| CG16734 | DRSC15143 | inactive |
| CG34444 | DRSC06435 | inactive |
| Zmynd10 (Zinc finger MYND-type containing 10) | DRSC09826 | inactive |
| Tdg (Thymine DNA glycosylase) | DRSC17119 | inactive |
| Tdg (Thymine DNA glycosylase) | DRSC17169 | inactive |
| CCT7 (Chaperonin containing TCP1 subunit 7) | DRSC16410 | inactive |
| ort (ora transientless) | DRSC16240 | inactive |
| CG9498 | DRSC03235 | inactive |
| TwdlN (TweedleN) | DRSC15813 | inactive |
| Mcad (Medium-chain acyl-CoA dehydrogenase) | DRSC09871 | inactive |
| kst (karst) | DRSC08719 | inactive |
| CG14106 | DRSC10109 | inactive |
| CG18539 | DRSC06766 | inactive |
| Tom20 (Translocase of outer membrane 20) | DRSC10899 | inactive |
| CG11790 | DRSC14390 | inactive |
| sns (sticks and stones) | DRSC06423 | inactive |
| sns (sticks and stones) | DRSC07687 | inactive |
| sns (sticks and stones) | DRSC07688 | inactive |
| sns (sticks and stones) | DRSC07689 | inactive |
| sns (sticks and stones) | DRSC07691 | inactive |
| sns (sticks and stones) | DRSC07692 | inactive |
| topi (matotopetli) | DRSC16431 | inactive |
| CG13217 | DRSC06339 | active |
| CG8093 | DRSC07078 | inactive |
| Pgm1 (Phosphoglucose mutase 1) | DRSC10490 | inactive |
| wek (weckle) | DRSC03561 | inactive |
| CG12849 | DRSC04129 | inactive |
| aus (argus) | DRSC13471 | inactive |
| aus (argus) | DRSC13473 | inactive |
| aus (argus) | DRSC15157 | inactive |
| CG30355 | DRSC21958 | inactive |
| CG4629 | DRSC00659 | inactive |
| CG14985 | DRSC08078 | inactive |
| CG14985 | DRSC08443 | inactive |
| CG13501 | DRSC04146 | inactive |
| Mal-A2 (Maltase A2) | DRSC07460 | inactive |
| CG2100 | DRSC12303 | inactive |
| CG7246 | DRSC18422 | inactive |
| bib (big brain) | DRSC03496 | inactive |
| CG11249 | DRSC11645 | inactive |
| Vm26Ab (Vitelline membrane 26Ab) | DRSC03473 | inactive |
| CG12637 | DRSC17845 | inactive |
| pira (pirate) | DRSC19494 | inactive |
| CG13318 | DRSC14581 | inactive |
| Polr1C (RNA polymerase I and III subunit C) | DRSC02719 | active |
| CG46298 | DRSC06222 | inactive |
| red (red Malpighian tubules) | DRSC14477 | inactive |
| pho (pleiohomeotic) | DRSC17219 | inactive |
| su(f) (suppressor of forked) | DRSC20907 | inactive |
| nht (no hitter) | DRSC01976 | inactive |
| bbc (bb in a boxcar) | DRSC06958 | inactive |
| bbc (bb in a boxcar) | DRSC22309 | inactive |
| CG31468 | DRSC13637 | inactive |
| CG30492 (retired record) + M7BP | DRSC05053 | inactive |
| CG30492 (retired record) + M7BP | DRSC05054 | inactive |
| CG30492 (retired record) + M7BP | DRSC05055 | inactive |
| CG30492 (retired record) + M7BP | DRSC06701 | inactive |
| CG30492 (retired record) + M7BP | DRSC06816 | inactive |
| CG8192 | DRSC07101 | inactive |
| vret (vreteno) | DRSC15640 | inactive |
| Rubicon | DRSC17889 | inactive |
| vir-1 (virus-induced RNA 1) | DRSC02501 | inactive |
| vir-1 (virus-induced RNA 1) | DRSC02863 | inactive |
| CG11608 | DRSC14334 | inactive |
| CG12857 | DRSC06197 | inactive |
| Mrp5 (Multidrug resistance protein 5) | DRSC15597 | inactive |
| Mrp5 (Multidrug resistance protein 5) | DRSC15598 | inactive |
| CAH8 (Carbonic anhydrase 8) | DRSC15784 | inactive |

Hits (from the list above):
| predicted target | dsRNA | call |
| --- | --- | --- |
| CG13217 | DRSC06339 | active |
| Polr1C (RNA polymerase I and III subunit C) | DRSC02719 | active |
